Measured values published in patent US20100041632A1, “USES OF THE CARBOXY-AMIDO-TRIAZOLE COMPOUNDS AND SALTS THEREOF” (priority 2006, published 2010).
For at least one compound, name, drawing or mass did not settle the structure.

How the values were obtained:
Format in all cases: in vivo
rats = test: Granulomatous tissue formation (implanted tampon); details: two-way ANOVA
Protocol: 44 rats (160 g) were randomly divided into 4 groups (11 rats/group). Animals were slightly anaesthetized by ether. After sterilization, the groin was cut bilaterally. A sterile tampon (50 mg) was implanted (sc). On the same day, the following treatments were administered: N.S. (i.p., control group), 0.067 mg/kg/day dexamethasone (i.p., positive control), 20 mg/kg/day CAI (p.o., dissolved in PEG 400, test group) and 0.067 mg/kg/day dexamethasone+20 mg/kg/day CAI (p.o., dissolved in PEG 400, combination group). After 7 days administration, the animals were sacrificed. The cotton was removed. The granulomatous tissue was dried at 60° C. oven for 12 hr and weighed. Increment in the dry weight of the tissue was taken as measure of granuloma formation. The Increment was adjusted for respective body weight, and the mean value for each group was calculated.

Wistar rats = test: Adjuvant induced arthritis (AA) of rat, paw oedema; details: compared with control group, two-way ANOVA
Protocol: Negative control (AA+NS): […] positive control (AA+Dex): dexamethasone, i.p., 0.067 mg/kg/day. Vehicle control (AA+PEG400): […] CAI (AA+CAI): 20 mg/ml CAI, ig, 0.1 ml/100 g/day (20 mg/kg/day). Combination (AA+CAI+Dex): dexamethasone, 0.067 mg/kg/day (i.p.) plus CAI 20 mg/kg/day (p.o.). Normal volumes of left and right hind paw were measured before adjuvant injection. […]

TNF-α = TNF-α levels in paw tissue and serum of adjuvant arthritis rat (ELISA); details: AA rats, day 29, ELISA
Protocol: (§1) Blood was collected from eve socket on day 29 and left in room temperature to allow coagulating. Then serum was separated by centrifugation at 3000 rpm for 10 min and kept in −20° C. After animals were sacrificed, the subcutaneous tissue of the right hind paw and that surrounding the tarsotibial joints was removed, broke into pieces, and placed in 5 ml normal saline (0.9%). The tissues were homogenized in a high speed homogenizer. Then the homogenate was centrifuged at 4° C. and 10,000 rpm for 15 min. The supernatants were collected and stored at −20° C. until further analysis.
(§2) IL-1β and TNF-α levels in paw tissue and serum were measured using specific rat ELISA kits according to the manufacturer's instructions.

IL-1β = IL-1β levels in paw tissue and serum of adjuvant arthritis rat (ELISA); details: AA rats, day 29, ELISA
Protocol: as §1, with “The adjuvant arthritis rat was prepared as described in example 8. Treatment was performed as described in example 8. Blood” for “Blood”
as §2

C[C@@H]1C[C@H]2[C@@H]3CCC4=CC(=O)C=C[C@]4(C)[C@@]3(F)[C@@H](O)C[C@]2(C)[C@@]1(O)C(=O)CO [dexamethasone, reference compound]
significant: Effect on granulomatous tissue formation (in words) (rats) | Effect on paw oedema of AA rats (in words) (Wistar rats) | TNF-α levels in paw tissue and serum (in words) (TNF-α) | IL-1β levels in paw tissue and serum (in words) (IL-1β)
